Data reported in the supplement of paper PMC10338343.
± gives the standard deviation. Only a part is listed here, and it is no random draw. Many entries were measured with a wide error.

These sequences were tested on MILI (PIWIL2) piRISC loaded with piRNA #2 (26 nt) (assay: pre-steady-state target cleavage rate (min^-1); MIWI and MILI are mouse PIWI proteins and EfPiwi is from a freshwater sponge; tags in brackets are library labels; higher = faster piRNA-guided slicing of the target). Settings: guide: piRNA #2 5'p-UUAGGUAACCCAGUAGAUCCAGAGGA; auxiliary factor: 500 nM mouse GTSF1.
Procedure: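 Cleave-'n-Seq: a library of target RNAs (target site embedded in constant flanks, ACAGCATTCCGCGTTAGTGATATCCG... 5' flank; DNA-blocked outside the site) at 0.1 nM was incubated with 1 nM active mouse MILI or MIWI piRISC (synthetic 5'-monophosphorylated piRNA guide) with or without 500 nM mouse GTSF1 at 33 °C for 1 min to 16 h. Uncleaved targets were sequenced and normalised to non-target controls, and the pooled three trials were fitted to a burst-and-steady-state model to give the pre-steady-state cleavage rate (min^-1; k3 is constrained to at most 1e-4). Sequence is the target site only; target names encode pairing extent (gX:gY) and contiguous / 1-mismatch / 2-mismatch / bulge geometry. Fits with R² ≤ 0 are excluded.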

Sequence	pre-steady-state target cleavage rate
CUUAAGGAGACGAUCUACAGGGUUAGCUAA	0.000979 ± 0.0072
CUUAAGGUCUGCAUCUACUGGGUUACCAAA	0.0157 ± 0.0062
CUUAAGGAGACCUAGUACGGGGUUACCUAA	0.000434 ± 0.026
CUUAAGGACUGGAACUACUGGGAUACCUAA	0.00304 ± 0.0099
CUUAAGGACUGGAUCUACUGGGUGACCUAA	0.00583 ± 0.0079
CUUAAGGAGACCUUCUAGUGGGUUACCUAA	0.000529 ± 0.013
CUUAAGGAGAGGAUCUUCUGGGUUACCUUA	0.00299 ± 0.0054
CUUAAGGAGACCUAGAUGUGGUUUACCUAA	0.000501 ± 0.018
CUUAAGGAGACCAUCUACUCGGUUACCAAA	0.000489 ± 0.018
CUUAAGGAGACCUUCUACUGAGGUUACCUAA	0.00046 ± 0.011
CUUAAGGAGACCUUCUACUGGGUUACAUAA	0.000429 ± 0.029
CUUAAGGAGUGGAUCCUACUGGGUUACCUAA	0.00226 ± 0.004
CUUAAGGAGACCUCCUACUGGGUUACCUAA	0.000901 ± 0.011
CUUAAGGUCAGGUUCUACUGGGUUACCUAA	0.0166 ± 0.0093
CUUAAGGACUCGAUGUACUGGGUUACCUAA	0.00742 ± 0.0086
CUUAAGGAGACCUACUACUAGGUUACCUAA	0.000491 ± 0.0084
CUUAAGGAGUGGAUCAACUGGGUAACCUAA	0.00359 ± 0.0059
CUUAAGGAGACCAUCUACUGGGUUACCUAAA	0.00169 ± 0.0083
CUUAAGGAGUGGAUCUUCUGGGUUUCCUAA	0.00305 ± 0.0036
CUUAAGCUCUGGAUCUUGAGGGUUACCUAA	0.0041 ± 0.0045
CUUAAGGAGAGGAUCUACUGGGUUACUCUAA	0.000808 ± 0.016
CUUAUCCUCUGGAUCUACUGGGUUAGGAUA [g6:g26:cont:t1A]	0.000628 ± 0.014
CUUAACCACUGGAUCUACUGGCUUACCUAA	0.00067 ± 0.016
CUUAAGGAGUCGAUCUUCUGGGUUACCUAA	0.00165 ± 0.0048

Sequence	pre-steady-state target cleavage rate
CUUAAGCUCAGGAUCUACUGGGUUUCCUAA	0.0265 ± 0.01
CUUAAGGAGAGGAUCUACUGGAUUACCUAA	0.000891 ± 0.018
CUUAACCUCUGGACUACUGGGUUACCUAA	0.156 ± 0.037
CUUAAGGAGAGCAUCAACUGGGUUACCUAA	0.00272 ± 0.0041
CUUAAGGAGACCUAGAUCUGCGUUACCUUA	0.000142 ± 0.061
CUUAAGGACUCGAUCAACUGGGUUACCUAA	0.00138 ± 0.011
CUUAAGGAGACCUAAUACUGGGUUACCUAA	0.000544 ± 0.012
CUUAACCUCUGGAUCAACUGGCUUACCUAA	0.00047 ± 0.02
CUUAAGGAGACCUUAUACUGGGUUACCUAA	0.00048 ± 0.017
CUUAAGGACUGGAUCGUACUGGGUUACCUAA	0.000778 ± 0.02
CUUAACCUCUGGAUCUACUGGCUAACCUAA	0.000445 ± 0.016
CUUAAGGAGACCUACUACUGCGUUACCUAA	0.000505 ± 0.011
CUUAAGGAGAGGAUGUACUGGGUAACCUAA	0.00134 ± 0.011
CUUAAGGAGAGGAUCUCUGGGUUACCUAA	0.0007 ± 0.014
CUUAAGGAGACGUAUCUACUGGGUUACCUAA	0.00168 ± 0.0085
CUUAAGGAGUGGAUCUUCUGGGUUACCAAA	0.00337 ± 0.006
CUUAAGGUCUGGAUCUACUGGGCUUACCUAA	0.00219 ± 0.0088
CUUAAGGAGACCAUCUACUGCGAUACCUAA	0.000211 ± 0.017
CUUAAGGAGACCUUCAACUGGGAUACCUAA	0.000152 ± 0.059
CUUAAGGAGUGGAUCUACUGGCGUUACCUAA	0.000321 ± 0.018
CUUAAGGAGUGGAUGUACUGGGAUACCUAA	0.00592 ± 0.0065
CUUAAGGAGACCUUCACUGGGUUACCUAA	0.000516 ± 0.016
CUUAUCCUCUGGAUCUACUGGGUUAUCUAA	0.0884 ± 0.015
CUUAAGGAGACCUUCCUACUGGGUUACCUAA	0.000846 ± 0.0087

For convenience, some entries already given.
Sequence	pre-steady-state target cleavage rate
CUUAAGGACUGGAUCUACUGGGUGACCUAA	0.00583 ± 0.0079
CUUAAGGAGACCUUCUAGUGGGUUACCUAA	0.000529 ± 0.013

Quoted from the listing:
CUUAAGGAGUGGAUGUACUGGGAUACCUAA – pre-steady-state target cleavage rate: 0.00592 ± 0.0065
CUUAAGGAGACGUAUCUACUGGGUUACCUAA – pre-steady-state target cleavage rate: 0.00168 ± 0.0085

Remaining list, next part:

Sequence	pre-steady-state target cleavage rate
CUUAAGCUCUGGAUCUAGUGGCUUACCUAA	0.000115 ± 0.037
CUUAAGCUCUGGAUCUUCUGGCUUACCUAA	0.000438 ± 0.021
CUUAAGGAGACCAUCUAUCUGGGUUACCUAA	0.000756 ± 0.012
CUUAAGGAGACGAUCUACUGCGAUACCUAA	0.000726 ± 0.0075
CUUAAGGAGACGAUCUACUCCCUUACCUAA	0.000258 ± 0.0094
CUUAAGGUCUGGAUCUACUUGGUUACCUAA	0.000737 ± 0.0095
CUUAAGGAGACCUUCUUCUGGCUUACCUAA	0.000632 ± 0.013
CUUAAGGACUGGAUCUACAGGCUUACCUAA	0.00164 ± 0.012
CUUAAGGUGUGGAUCUACUGGGUUACCUUA	0.0353 ± 0.011
CUUAAGGAGACCUUCUACUGGGUUACCGAA	0.000162 ± 0.024
CUUAAGGAGAGCAUGUACUGGGUUACCUAA	0.00235 ± 0.0036
CUUAAGGACUGGAUCUACUGGGUUACCGAA	0.00161 ± 0.011
CUUAAGGAGACCAUCUACUGCGUUACCAAA	0.000191 ± 0.037
CUUAAGGACUCGAUCUACUGGGUUACCAAA	0.0046 ± 0.0054
CUUAAGGACUGGAUCUACUAGGGUUACCUAA	0.000216 ± 0.037
CUUAUCCUCUGGAUCUACUGGGUUACCUCAA	0.0973 ± 0.019
CUUAAGGUCUCCUUCUACUGGGUUACCUAA	0.000891 ± 0.0077
CUUAAGCUCUGGCUCUACUGGGUUACCUAA	0.163 ± 0.034
CUUAAGGAGACGUCUACUGGGUUACCUAA	0.00051 ± 0.01
CUUAAGGAGAGGAUCUACUGGGUUACAUAA	0.000397 ± 0.017
CUUAUCCUCUGGAUCUCCUGGGUUACCUAA	0.459 ± 0.18
CUUAAGGAGUGGAUACUACUGGGUUACCUAA	0.00135 ± 0.0094
CUUAAGGUCGGAUCUACUGGGUUACCUAA	0.0107 ± 0.011
